Data reported in publication doi:10.1101/2021.03.13.435271.
No constants are given. Whether binding was seen depends on the method and setting. A result given as binding can be weak or reduced; the word gives no strength.

Protein sequences, listed by entry. Tags and fused reporters are not part of them. Lines headed by an entry give the natural chain unless they say otherwise; changes in a name come on top.
UniProt O07549: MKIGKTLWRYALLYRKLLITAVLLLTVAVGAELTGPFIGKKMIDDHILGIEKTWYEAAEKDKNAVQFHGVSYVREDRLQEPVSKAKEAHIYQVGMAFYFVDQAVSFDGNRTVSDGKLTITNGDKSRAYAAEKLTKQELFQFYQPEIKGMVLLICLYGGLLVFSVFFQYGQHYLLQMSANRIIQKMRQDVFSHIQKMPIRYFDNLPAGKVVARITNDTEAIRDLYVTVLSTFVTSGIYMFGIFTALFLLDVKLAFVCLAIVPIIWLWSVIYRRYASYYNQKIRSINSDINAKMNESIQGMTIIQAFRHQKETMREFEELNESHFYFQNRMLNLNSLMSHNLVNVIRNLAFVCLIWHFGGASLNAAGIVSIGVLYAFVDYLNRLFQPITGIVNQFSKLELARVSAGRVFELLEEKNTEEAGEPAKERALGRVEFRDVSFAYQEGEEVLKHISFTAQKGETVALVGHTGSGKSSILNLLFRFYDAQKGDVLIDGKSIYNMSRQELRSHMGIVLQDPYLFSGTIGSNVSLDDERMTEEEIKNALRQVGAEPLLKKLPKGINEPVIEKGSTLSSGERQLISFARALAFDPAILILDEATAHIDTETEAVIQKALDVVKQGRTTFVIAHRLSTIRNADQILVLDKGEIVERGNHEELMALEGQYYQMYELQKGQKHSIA
UniProt O07550: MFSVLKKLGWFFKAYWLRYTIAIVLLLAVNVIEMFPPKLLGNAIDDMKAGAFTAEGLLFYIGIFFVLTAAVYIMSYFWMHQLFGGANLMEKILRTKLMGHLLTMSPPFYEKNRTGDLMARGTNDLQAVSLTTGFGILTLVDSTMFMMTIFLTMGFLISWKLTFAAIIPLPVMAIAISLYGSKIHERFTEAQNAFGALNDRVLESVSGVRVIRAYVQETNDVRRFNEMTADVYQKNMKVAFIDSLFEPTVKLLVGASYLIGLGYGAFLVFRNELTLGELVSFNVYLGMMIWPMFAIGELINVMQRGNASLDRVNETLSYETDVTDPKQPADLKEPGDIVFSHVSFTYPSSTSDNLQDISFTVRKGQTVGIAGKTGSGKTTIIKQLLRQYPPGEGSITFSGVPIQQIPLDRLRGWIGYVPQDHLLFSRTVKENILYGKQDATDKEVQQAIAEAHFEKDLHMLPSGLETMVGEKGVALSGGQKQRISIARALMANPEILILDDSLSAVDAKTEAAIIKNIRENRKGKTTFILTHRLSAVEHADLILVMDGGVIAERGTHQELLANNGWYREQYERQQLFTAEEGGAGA

Target: BmrD of cysteine-less BmrCD bearing E592Q (BmrCD-QQ) (Bacillus subtilis) (UniProt O07549)
Test: cryo-EM structure

- binding: binds
Substance: BmrC of cysteine-less BmrCD bearing D500Q (BmrCD-QQ) (from UniProt O07550)
